According to patent publication US20100003239A1:
No constants are given. Whether binding was seen depends on the method and setting. Some binding calls cover weakened binding; strength is not graded here.

Sequences of proteins named here, by UniProt entry; tags and fusion partners are left off. Residues count along the entry.
UniProt Q14623, residues 28-411: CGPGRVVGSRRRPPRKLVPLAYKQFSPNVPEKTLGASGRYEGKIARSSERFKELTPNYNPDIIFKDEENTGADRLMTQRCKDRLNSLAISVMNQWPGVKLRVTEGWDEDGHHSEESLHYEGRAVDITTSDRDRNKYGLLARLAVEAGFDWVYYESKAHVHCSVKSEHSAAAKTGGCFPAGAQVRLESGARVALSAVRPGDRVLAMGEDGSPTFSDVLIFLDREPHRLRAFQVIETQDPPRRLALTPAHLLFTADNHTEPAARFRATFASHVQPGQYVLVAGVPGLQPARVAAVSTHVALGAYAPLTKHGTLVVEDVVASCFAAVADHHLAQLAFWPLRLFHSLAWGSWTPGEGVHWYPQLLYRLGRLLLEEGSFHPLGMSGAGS
UniProt Q62226, residues 25-198: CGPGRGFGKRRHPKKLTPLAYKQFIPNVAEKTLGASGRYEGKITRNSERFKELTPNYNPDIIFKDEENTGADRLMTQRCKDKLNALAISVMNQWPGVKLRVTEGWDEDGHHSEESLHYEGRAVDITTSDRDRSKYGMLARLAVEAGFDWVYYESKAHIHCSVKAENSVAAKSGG

How the values were obtained:
[1] = molecular target: untagged full-length human Ihh (NP-002172) (human) (UniProt Q14623); test: Western blot of 293 cells transfected with human Ihh full length protein
[2] = molecular target: endogenous mouse Hh (Shh) in mouse embryo and skin tissue (mouse) (UniProt Q62226); test: IHC on 4-week mouse skin, anagen hair follicles
mouse Shh-N (mouse) = mouse Shh-N (mouse) (UniProt Q62226); test: IF, IHC and Western blotting (data not shown)
[3] = molecular target: untagged full-length human Ihh (NP-002172) (human) (UniProt Q14623); test: IF, IHC (data not shown) and Western blotting of transfected full-length clones
[4] = molecular target: endogenous mouse Hh (Shh) in mouse embryo and skin tissue (mouse) (UniProt Q62226); test: IHC on mouse embryo sections
[5] = molecular target: endogenous mouse Hh (Shh) in mouse embryo and skin tissue (mouse) (UniProt Q62226); test: IHC on FFPE mouse embryo sections
[6] = molecular target: endogenous mouse Hh (Shh) in mouse embryo and skin tissue (mouse) (UniProt Q62226); test: IHC on mouse skin (endogenous Shh)
[7] = molecular target: untagged full-length human Ihh (NP-002172) (human) (UniProt Q14623); test: immunofluorescence on COS cells transfected with full length human Ihh

Measured: binding

B1: 95.9 rabbit monoclonal anti-Hh antibody (antibody, V domains shown)
VH: QSVKESGGGLVQPEGSLTLTCTVSGFSLSSYDMSWVRQAPGSGLEWIGGILSGGSAYYASWAKSRSTITKNTNLNTVTLKMTSLTAADTATYFCARGIYPVGTNYNIWGPGTLVTVSS
VL: IAVLTQTPSPVSAAVGGTVTINCQSSPSVYSNYLAWYQQKPGQPPKLLIYYASTLASGVPSRFKGSGSGTEFTLTISDLECADAATYYCAGGYIDTSDTAFGGGTEVVVKG
binds: all assays above
